Reference: patent US20180003695A1, “METHOD FOR QUANTITATIVE MEASUREMENT OF GASTRIC ACIDITY USING 13C CARBONATE SALT” (priority 2010, published 2018)
For at least one compound, name, drawing or mass did not settle the structure.

Tested on: gastric acid secretion
Test: Measurement of gastric acid secretion increase by 13C-CaCO3 expiration test (rats given pentagastrin)
Assay type: in vivo
Settings: pentagastrin 0.75 mg/mL i.v. 1 mL/kg; 13C-CaCO3 500 or 1000 μmol/kg oral 1 hour later; rats n=3

SMILES: CSCC[C@H](NC(=O)[C@H](Cc1c[nH]c2ccccc12)NC(=O)CCNC(=O)OC(C)(C)C)C(=O)N[C@@H](CC(=O)O)C(=O)N[C@@H](Cc1ccccc1)C(N)=O [pentagastrin]
- 13CO2 concentration (Δ13C (‰)) in the expired air compared with normal rats (control groups): significantly high
